The results in this text go back to PubChem BioAssay AID328 (DTP/NCI, 2004).

The experiment relates to BDF1 mice, P388 leukemia ip, median survival T/C. Put plainly: NCI In Vivo Anticancer Drug Screen. Data for tumor model P388 Leukemia (intraperitoneal) in B6D2F1 (BDF1) mice. The conditions noted are these: higher T/C = longer survival. The gist of the method: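 Read-out is survival of treated animals expressed relative to the vehicle group, as a T/C ratio.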
Where [1] appears, read: T/C endpoint: median survival time, dose: 12.5 mg/kg/injection, schedule: Q01DX009 (ip), vehicle: Klucel (hydroxypropylcellulose) (HPC).
Where [2] appears, read: T/C endpoint: median survival time, dose: 25.0 mg/kg/injection, schedule: Q01DX009 (ip), vehicle: Klucel (hydroxypropylcellulose) (HPC).
Setting [3] is: T/C endpoint: median survival time, dose: 50.0 mg/kg/injection, schedule: Q01DX009 (ip), vehicle: Klucel (hydroxypropylcellulose) (HPC).
[4] abbreviates: T/C endpoint: median survival time, dose: 100.0 mg/kg/injection, schedule: Q01DX009 (ip), vehicle: Klucel (hydroxypropylcellulose) (HPC).
[5] abbreviates: T/C endpoint: median survival time, dose: 200.0 mg/kg/injection, schedule: Q01DX009 (ip), vehicle: saline with Tween-80.
[6] abbreviates: T/C endpoint: median survival time, dose: 400.0 mg/kg/injection, schedule: Q01DX009 (ip), vehicle: saline with Tween-80.
The mark [7] stands for this setting: T/C endpoint: median survival time, dose: 400.0 mg/kg/injection, schedule: Q01DX009 (ip), vehicle: saline.
Where [8] appears, read: T/C endpoint: median survival time, dose: 100.0 mg/kg/injection, schedule: Q04DX003 (ip), vehicle: saline.
Setting [9] is: T/C endpoint: median survival time, dose: 400.0 mg/kg/injection, schedule: Q04DX003 (ip), vehicle: saline.
The mark [10] stands for this setting: T/C endpoint: median survival time, dose: 100.0 mg/kg/injection, schedule: Q01DX009 (ip), vehicle: saline with Tween-80.
[11] abbreviates: T/C endpoint: median survival time, dose: 400.0 mg/kg/injection, schedule: Q04DX003 (ip), vehicle: water.
[12] abbreviates: T/C endpoint: median survival time, dose: 200.0 mg/kg/injection, schedule: Q04DX003 (ip), vehicle: water.
The mark [13] stands for this setting: T/C endpoint: median survival time, dose: 100.0 mg/kg/injection, schedule: Q01DX009 (ip), vehicle: saline.

The list is a part of this screen's results and no random one: it is rich in T/C values a quarter to a half above the control, in often repeated tests (any T/C) and in doses without a T/C. Further doses and runs are listed elsewhere. T/C: endpoint of the treated group in % of that of the vehicle group. Some doses have a count of surviving animals in place of a T/C: the source files T/C as zero there, which appears to mark a toxic dose or a test without result, not a measured value. Some doses without a T/C left all or most animals alive at the check, yet need not have been tolerated: survival well below the control is almost never listed, so the zero probably covers shortened survival too. Survivors were counted at the toxicity check, usually on the fifth day, unless a day is given; later deaths do not show. Schedule codes are those of the source, taken here to give the interval after Q, in days (D) or hours (H), and the number of doses after X. Some doses were run more than once; their values stand side by side, smallest first. Some molecules as drawn cover several salts, stereoisomers or complexes of the source; a dose is that of the sample tested. Where survival is the endpoint, the PubChem record calls one and a half times the control and up active, and a quarter to a half above the control has no call in these data; cut-offs in other NCI protocols can differ.

Turning to `CC(=O)c1cc(CN(CCCl)CCCl)c(O)c(CN(CCCl)CCCl)c1O`, the T/C is 127 % of control (T/C endpoint: median survival time, dose: 3.13 mg/kg/injection, schedule: Q01DX009 (ip), vehicle: Klucel (hydroxypropylcellulose) (HPC)) and 131 % of control under setting [1]. Further, the survivor count is reported as 3 of 6 under setting [2]; 1 of 6 under setting [3]; 0 of 6 under setting [4]; 0 of 6 (T/C endpoint: median survival time, dose: 200.0 mg/kg/injection, schedule: Q01DX009 (ip), vehicle: Klucel (hydroxypropylcellulose) (HPC)).
With `CC1=CC(=O)c2c(O)cc(C)c(C(=O)C(Cl)Cl)c2C1=O`, the survivor count (T/C endpoint: median survival time, dose: 40.0 mg/kg/injection, schedule: Q01DX009 (ip), vehicle: Klucel (hydroxypropylcellulose) (HPC)) is reported as 4 of 6.
`O=C(Oc1ccc(-c2ccc(Br)cc2)cc1)c1ccco1`: the survivor count is listed as 6 of 6 under setting [5] and 4 of 6 under setting [6].
Consider `C[C@]12CC[C@@H]3c4ccc(OC5CCCCO5)cc4CC[C@H]3[C@@H]1CC[C@@H]2O` (stereo not given in full), for which, under setting [7], the survivor count was 6 of 6.
As to `O=C(Cl)OCCOCCOC(=O)Cl`, the survivor count reads like this: under setting [8], 3 of 6; (T/C endpoint: median survival time, dose: 200.0 mg/kg/injection, schedule: Q04DX003 (ip), vehicle: saline) 5 of 6; under setting [9], 6 of 6.
As for `CC(=O)O[C@@]1(C)C(=O)OCC2=CCN3CC[C@@H](OC(=O)[C@H](C)[C@]1(C)OC(C)=O)[C@@H]23`, the survivor count (T/C endpoint: median survival time, dose: 100.0 mg/kg/injection, schedule: Q01DX010 (ip), vehicle: carboxymethylcellulose (CMC)) was 3 of 6.
Turning to `O=C(O)CCCl`, the survivor count under setting [7] is listed as 0 of 6.
Regarding `O=C1C(Cl)=C(Cl)C(=O)C2CC=CCC12` (stereo not given), the survivor count (T/C endpoint: median survival time, dose: 12.5 mg/kg/injection, schedule: Q01DX001 (ip), vehicle: saline with Tween-80) is 1 of 6.
`C[N+]1(C)N=C([O-])N(c2ccc([N+](=O)[O-])cc2)C1=O`: the survivor count under setting [5] is listed as 5 of 6.
Turning to `NC(=S)N/N=C\c1nnc(N)s1`, the survivor count (T/C endpoint: median survival time, dose: 25.0 mg/kg/injection, schedule: Q01DX009 (ip), vehicle: saline with Tween-80) is on record as 6 of 7 and the survivor count under setting [10] is on record as 7 of 7.
As for `COc1cc2c[n+](C)c3c4cc(OC)c(OC)cc4ccc3c2cc1OC`, the T/C reads like this: under setting [1], 134 % of control; (T/C endpoint: median survival time, dose: 12.5 mg/kg/injection, schedule: Q01DX009 (ip), vehicle: other) 142 % of control; (T/C endpoint: median survival time, dose: 20.0 mg/kg/injection, schedule: Q01DX009 (ip), vehicle: saline) 140 % of control; under setting [2], 142 % of control; (T/C endpoint: median survival time, dose: 40.0 mg/kg/injection, schedule: Q01DX009 (ip), vehicle: saline) 145 % of control; under setting [3], 142 % of control. For the same compound, the T/C reads like this: (T/C endpoint: median survival time, dose: 100.0 mg/kg/injection, schedule: Q04DX003 (ip), vehicle: water) 148 % of control; (T/C endpoint: median survival time, dose: 240.0 mg/kg/injection, schedule: Q04DX003 (ip), vehicle: saline) 145 % of control; under setting [9], 140 and 145 % of control; under setting [11], 134 % of control. Further, the survivor count is 6 of 6 (T/C endpoint: median survival time, dose: 200.0 mg/kg/injection, schedule: Q01DX009 (ip), vehicle: other); 4 of 6 under setting [9]; 3 of 6 (T/C endpoint: median survival time, dose: 600.0 mg/kg/injection, schedule: Q04DX003 (ip), vehicle: saline).
Take `COc1c(Cl)cc2c(c1OC)N(C)C1N3C(=O)C4(C)SSC3(C(=O)N4C)C(O)C21O` (stereo not given): the survivor count is 6 of 6 (T/C endpoint: median survival time, dose: 0.5 mg/kg/injection, schedule: Q01DX009 (ip), vehicle: Klucel (hydroxypropylcellulose) (HPC)); 3 of 6 and 5 of 6 (T/C endpoint: median survival time, dose: 1.0 mg/kg/injection, schedule: Q01DX009 (ip), vehicle: Klucel (hydroxypropylcellulose) (HPC)); 2 of 6 (T/C endpoint: median survival time, dose: 2.0 mg/kg/injection, schedule: Q01DX009 (ip), vehicle: Klucel (hydroxypropylcellulose) (HPC)).
Consider `CN(C)c1nn2c(-c3ccccc3)nnc2o1`, for which the T/C under setting [8] is 125 % of control.
For the compound `CO[C@H]1C[C@](C)(O)Cc2cc3c(c(O)c21)C(=O)c1c(O)cc2c(c1C3=O)O[C@@H]1O[C@@]2(C)[C@H](O)[C@@H](N(C)C)[C@@H]1O`, the survivor count (T/C endpoint: median survival time, dose: 83.3 mg/kg/injection, schedule: Q04DX003 (ip), vehicle: lactate) is 7 of 8.
Consider `CC(=O)O[C@]1(C(C)=O)CC[C@H]2[C@@H]3C[C@H](C)C4=CC(=O)CC[C@]4(C)[C@H]3CC[C@@]21C`, for which the survivor count is, setting by setting: under setting [4], 6 of 6; (T/C endpoint: median survival time, dose: 400.0 mg/kg/injection, schedule: Q01DX009 (ip), vehicle: Klucel (hydroxypropylcellulose) (HPC)) 8 of 10; (T/C endpoint: median survival time, dose: 800.0 mg/kg/injection, schedule: Q01DX009 (ip), vehicle: Klucel (hydroxypropylcellulose) (HPC)) 9 of 10.
Consider `O=C1C=CC(=O)N1c1ccc(-c2nc3ccccc3o2)cc1`, for which the survivor count (T/C endpoint: median survival time, dose: 200.0 mg/kg/injection, schedule: Q01DX005 (ip), vehicle: saline with Tween-80) was 0 of 5.
In the case of `CCCCOC1CC2c3ccccc3C1c1cccc[n+]12` (stereo not given), the survivor count (T/C endpoint: median survival time, dose: 35.0 mg/kg/injection, schedule: Q01DX009 (ip), vehicle: saline) is reported as 5 of 6; the survivor count (T/C endpoint: median survival time, dose: 55.0 mg/kg/injection, schedule: Q01DX009 (ip), vehicle: saline) is reported as 0 of 6; the survivor count (T/C endpoint: median survival time, dose: 75.0 mg/kg/injection, schedule: Q04DX003 (ip), vehicle: saline) was 2 of 6; the survivor count (T/C endpoint: median survival time, dose: 80.0 mg/kg/injection, schedule: Q01DX009 (ip), vehicle: saline) is given as 0 of 6.
On to `CC(=O)NC(=S)Nc1ccccc1`, for which the survivor count runs as follows: (T/C endpoint: median survival time, dose: 100.0 mg/kg/injection, schedule: Q01DX001 (ip), vehicle: Klucel (hydroxypropylcellulose) (HPC)) 0 of 6; (T/C endpoint: median survival time, dose: 200.0 mg/kg/injection, schedule: Q01DX001 (ip), vehicle: Klucel (hydroxypropylcellulose) (HPC)) 0 of 6; (T/C endpoint: median survival time, dose: 400.0 mg/kg/injection, schedule: Q01DX001 (ip), vehicle: Klucel (hydroxypropylcellulose) (HPC)) 0 of 6.
For the compound `CCC(=O)O[C@H]1CC[C@H]2[C@@H]3CCC4=CC(=O)C[C@]4(C)[C@H]3CC[C@]12C`, the survivor count (T/C endpoint: median survival time, dose: 400.0 mg/kg/injection, schedule: Q04DX003 (ip), vehicle: saline with Tween-80) is on record as 4 of 6.
For the compound `O=C1CCSC(=O)N1SC(Cl)(Cl)Cl`, the survivor count reads like this: under setting [10], 1 of 6; under setting [5], 0 of 6; under setting [6], 0 of 6.
As for `FC(Cl)(Cl)c1nc2nc(Cl)c(Cl)nc2[nH]1`, the survivor count under setting [12] is given as 2 of 6.
Regarding `CC1(C)OC2C(CO)OC(n3cnc4c(N)ncnc43)C2O1` (stereo not given), the survivor count (T/C endpoint: median survival time, dose: 150.0 mg/kg/injection, schedule: Q04DX003 (ip), vehicle: Klucel (hydroxypropylcellulose) (HPC)) is 4 of 6.
For `O=C(CCl)Nc1cc(Cl)ccc1N1CCCC1`, the survivor count is, setting by setting: (T/C endpoint: median survival time, dose: 75.0 mg/kg/injection, schedule: Q04DX003 (ip), vehicle: Klucel (hydroxypropylcellulose) (HPC)) 6 of 6; under setting [4], 0 of 6; (T/C endpoint: median survival time, dose: 115.0 mg/kg/injection, schedule: Q04DX003 (ip), vehicle: Klucel (hydroxypropylcellulose) (HPC)) 3 of 6.
For the compound `Cc1c[n+]([O-])ccc1[N+](=O)[O-]`, the survivor count is given as 3 of 6 under setting [13] and 0 of 6 under setting [9].
As for `C=C(C)c1ccc(C)c(C)c1`, the T/C under setting [5] is 134 % of control.
With `Cc1cc[n+](CCc2ccccc2)cc1`, the survivor count was 0 of 6 under setting [13] and 0 of 6 (T/C endpoint: median survival time, dose: 150.0 mg/kg/injection, schedule: Q01DX010 (ip), vehicle: acetone).
`CN(C)Cc1ccc(C(C)(C)C)cc1`: the survivor count reads like this: (T/C endpoint: mean survival time, dose: 50.0 mg/kg/injection, schedule: Q01DX009 (ip), vehicle: water) 5 of 6; under setting [12], 0 of 6; under setting [11], 0 of 6.
